In the supplement of paper PMC12819154, “High-throughput peptide-centric local stability assay extends protein–ligand identification to membrane proteins, tissues and bacteria” (Nature Structural & Molecular Biology, 2025):
This is one part of the list. Most entries show no effect beyond the scatter of the controls.

Amino acid sequences for entries named in this document (tags omitted). A change or cut given only in a name is not applied to a line headed by its entry.
UniProt Q8C3F2: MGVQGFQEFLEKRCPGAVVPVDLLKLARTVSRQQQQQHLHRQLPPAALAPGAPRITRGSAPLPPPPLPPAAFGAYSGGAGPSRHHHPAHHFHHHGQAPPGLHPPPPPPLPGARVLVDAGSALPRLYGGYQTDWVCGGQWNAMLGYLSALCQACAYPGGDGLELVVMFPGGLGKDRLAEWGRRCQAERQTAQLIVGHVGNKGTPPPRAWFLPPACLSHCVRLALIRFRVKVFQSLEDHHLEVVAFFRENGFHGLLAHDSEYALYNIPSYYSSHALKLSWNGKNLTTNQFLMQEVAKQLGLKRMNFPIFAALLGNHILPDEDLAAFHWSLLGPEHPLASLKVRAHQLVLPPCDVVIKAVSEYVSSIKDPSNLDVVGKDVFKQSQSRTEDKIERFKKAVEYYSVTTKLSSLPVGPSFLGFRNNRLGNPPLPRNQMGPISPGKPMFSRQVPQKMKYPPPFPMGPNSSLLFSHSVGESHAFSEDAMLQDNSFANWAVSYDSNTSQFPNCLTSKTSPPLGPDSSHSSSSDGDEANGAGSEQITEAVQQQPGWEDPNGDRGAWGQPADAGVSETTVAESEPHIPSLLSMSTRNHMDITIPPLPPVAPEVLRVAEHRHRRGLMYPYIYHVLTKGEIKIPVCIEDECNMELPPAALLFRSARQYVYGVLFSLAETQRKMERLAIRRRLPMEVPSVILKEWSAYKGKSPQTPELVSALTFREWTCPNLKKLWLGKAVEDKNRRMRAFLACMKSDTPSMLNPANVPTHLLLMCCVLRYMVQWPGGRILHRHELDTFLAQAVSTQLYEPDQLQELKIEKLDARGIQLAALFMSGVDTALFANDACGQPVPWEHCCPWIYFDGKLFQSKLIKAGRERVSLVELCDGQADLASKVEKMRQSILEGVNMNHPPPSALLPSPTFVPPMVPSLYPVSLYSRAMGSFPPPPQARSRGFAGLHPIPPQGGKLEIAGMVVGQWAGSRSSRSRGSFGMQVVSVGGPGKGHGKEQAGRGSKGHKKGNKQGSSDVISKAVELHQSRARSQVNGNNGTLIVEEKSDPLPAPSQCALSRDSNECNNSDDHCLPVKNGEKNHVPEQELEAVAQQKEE
UniProt Q8C7V8: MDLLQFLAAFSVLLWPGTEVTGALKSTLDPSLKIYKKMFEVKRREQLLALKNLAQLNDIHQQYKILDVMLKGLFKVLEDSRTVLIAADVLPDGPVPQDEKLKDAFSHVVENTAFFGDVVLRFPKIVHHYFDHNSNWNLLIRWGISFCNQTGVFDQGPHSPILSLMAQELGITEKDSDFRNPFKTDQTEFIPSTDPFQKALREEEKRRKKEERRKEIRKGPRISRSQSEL
UniProt Q8BVR6: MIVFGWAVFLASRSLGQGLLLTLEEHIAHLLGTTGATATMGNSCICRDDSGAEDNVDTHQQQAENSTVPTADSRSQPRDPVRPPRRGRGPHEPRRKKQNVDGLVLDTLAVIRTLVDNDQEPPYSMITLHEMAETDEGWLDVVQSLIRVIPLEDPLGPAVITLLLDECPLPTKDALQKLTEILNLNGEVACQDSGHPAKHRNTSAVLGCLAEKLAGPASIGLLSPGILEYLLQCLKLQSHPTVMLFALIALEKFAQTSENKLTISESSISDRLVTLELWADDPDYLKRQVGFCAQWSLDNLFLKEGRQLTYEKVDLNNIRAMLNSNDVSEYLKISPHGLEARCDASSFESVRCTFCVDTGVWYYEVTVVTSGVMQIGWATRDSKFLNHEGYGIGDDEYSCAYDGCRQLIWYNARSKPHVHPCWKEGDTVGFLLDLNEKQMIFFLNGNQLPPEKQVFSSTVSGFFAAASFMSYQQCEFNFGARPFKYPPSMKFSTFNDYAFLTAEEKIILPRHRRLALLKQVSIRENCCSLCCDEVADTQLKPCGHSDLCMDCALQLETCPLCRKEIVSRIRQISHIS
UniProt Q8BZI0: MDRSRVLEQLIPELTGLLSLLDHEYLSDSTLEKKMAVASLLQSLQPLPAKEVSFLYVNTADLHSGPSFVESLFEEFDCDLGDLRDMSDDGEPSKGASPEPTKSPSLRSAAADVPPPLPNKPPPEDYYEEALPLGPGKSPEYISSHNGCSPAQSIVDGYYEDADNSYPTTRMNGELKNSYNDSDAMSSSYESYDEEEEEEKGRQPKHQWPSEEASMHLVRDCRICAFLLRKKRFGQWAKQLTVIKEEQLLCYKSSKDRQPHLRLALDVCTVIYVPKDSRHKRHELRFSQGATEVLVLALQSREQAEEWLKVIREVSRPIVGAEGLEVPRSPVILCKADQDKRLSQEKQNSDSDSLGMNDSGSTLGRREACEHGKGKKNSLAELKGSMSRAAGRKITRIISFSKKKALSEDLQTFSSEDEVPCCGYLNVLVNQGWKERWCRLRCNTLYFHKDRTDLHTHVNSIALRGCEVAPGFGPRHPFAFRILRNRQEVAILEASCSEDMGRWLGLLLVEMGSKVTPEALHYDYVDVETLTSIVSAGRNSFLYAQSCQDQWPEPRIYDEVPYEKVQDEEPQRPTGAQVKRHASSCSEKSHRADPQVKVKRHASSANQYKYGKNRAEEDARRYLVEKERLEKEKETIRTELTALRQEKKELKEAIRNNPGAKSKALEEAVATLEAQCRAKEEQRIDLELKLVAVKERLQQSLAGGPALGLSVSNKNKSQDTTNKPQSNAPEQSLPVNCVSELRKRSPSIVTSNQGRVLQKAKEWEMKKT
UniProt Q8C176, whole entry: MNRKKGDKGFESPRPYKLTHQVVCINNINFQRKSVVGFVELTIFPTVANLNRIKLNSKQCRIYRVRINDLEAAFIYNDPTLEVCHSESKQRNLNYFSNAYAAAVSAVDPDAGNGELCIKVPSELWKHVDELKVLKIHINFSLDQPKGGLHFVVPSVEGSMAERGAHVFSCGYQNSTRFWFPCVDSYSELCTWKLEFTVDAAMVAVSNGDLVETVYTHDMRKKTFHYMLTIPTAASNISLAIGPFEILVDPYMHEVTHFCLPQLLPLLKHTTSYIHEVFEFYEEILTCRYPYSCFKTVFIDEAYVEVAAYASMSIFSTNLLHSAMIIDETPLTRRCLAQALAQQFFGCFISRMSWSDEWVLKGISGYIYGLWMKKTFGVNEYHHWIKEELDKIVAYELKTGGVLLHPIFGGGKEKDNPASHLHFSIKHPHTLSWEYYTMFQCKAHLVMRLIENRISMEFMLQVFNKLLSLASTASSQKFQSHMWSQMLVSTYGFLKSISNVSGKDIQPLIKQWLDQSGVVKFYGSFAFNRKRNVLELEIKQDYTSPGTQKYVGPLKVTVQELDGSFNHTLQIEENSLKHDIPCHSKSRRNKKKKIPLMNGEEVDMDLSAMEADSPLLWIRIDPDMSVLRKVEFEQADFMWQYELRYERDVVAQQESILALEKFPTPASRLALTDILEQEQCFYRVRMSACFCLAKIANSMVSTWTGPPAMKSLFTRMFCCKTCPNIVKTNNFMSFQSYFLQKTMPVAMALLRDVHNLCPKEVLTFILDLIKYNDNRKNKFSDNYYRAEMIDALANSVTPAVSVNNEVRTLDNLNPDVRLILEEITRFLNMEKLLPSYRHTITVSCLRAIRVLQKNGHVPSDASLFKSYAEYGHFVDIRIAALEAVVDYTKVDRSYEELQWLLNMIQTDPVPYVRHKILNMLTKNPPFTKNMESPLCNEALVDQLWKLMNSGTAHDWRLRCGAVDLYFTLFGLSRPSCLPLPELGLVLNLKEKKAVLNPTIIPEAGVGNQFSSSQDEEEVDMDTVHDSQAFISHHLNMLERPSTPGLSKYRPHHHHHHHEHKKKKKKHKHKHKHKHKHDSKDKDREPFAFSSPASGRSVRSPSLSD
UniProt Q8C3W1: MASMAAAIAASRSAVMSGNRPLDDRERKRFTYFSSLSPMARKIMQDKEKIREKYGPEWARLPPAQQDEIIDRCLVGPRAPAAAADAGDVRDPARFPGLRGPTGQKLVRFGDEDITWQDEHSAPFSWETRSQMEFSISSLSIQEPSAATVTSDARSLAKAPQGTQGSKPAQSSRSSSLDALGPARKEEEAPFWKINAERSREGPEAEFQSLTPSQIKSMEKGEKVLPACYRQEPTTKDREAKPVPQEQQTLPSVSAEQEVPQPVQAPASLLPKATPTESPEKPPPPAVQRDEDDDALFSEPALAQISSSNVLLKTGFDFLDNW
UniProt Q8C1B7: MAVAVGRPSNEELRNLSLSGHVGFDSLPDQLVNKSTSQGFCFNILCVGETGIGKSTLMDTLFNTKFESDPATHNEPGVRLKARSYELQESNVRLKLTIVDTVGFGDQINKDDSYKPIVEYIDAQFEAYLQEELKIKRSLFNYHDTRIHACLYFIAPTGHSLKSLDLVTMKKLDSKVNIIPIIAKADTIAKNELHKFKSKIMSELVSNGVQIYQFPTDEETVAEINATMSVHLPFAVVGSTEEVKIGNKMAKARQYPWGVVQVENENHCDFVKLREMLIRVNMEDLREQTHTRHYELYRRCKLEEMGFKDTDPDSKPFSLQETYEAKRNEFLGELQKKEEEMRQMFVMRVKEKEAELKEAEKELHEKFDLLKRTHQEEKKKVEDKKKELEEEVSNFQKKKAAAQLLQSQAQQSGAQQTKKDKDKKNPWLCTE
UniProt Q8BWP5: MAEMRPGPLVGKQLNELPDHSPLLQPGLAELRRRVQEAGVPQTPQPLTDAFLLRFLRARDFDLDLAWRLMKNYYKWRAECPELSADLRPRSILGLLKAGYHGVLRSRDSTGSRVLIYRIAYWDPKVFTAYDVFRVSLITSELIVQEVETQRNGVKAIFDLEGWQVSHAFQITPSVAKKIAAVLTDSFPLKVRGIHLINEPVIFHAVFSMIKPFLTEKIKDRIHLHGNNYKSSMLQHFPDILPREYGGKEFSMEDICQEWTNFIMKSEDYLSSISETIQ
UniProt Q8C142: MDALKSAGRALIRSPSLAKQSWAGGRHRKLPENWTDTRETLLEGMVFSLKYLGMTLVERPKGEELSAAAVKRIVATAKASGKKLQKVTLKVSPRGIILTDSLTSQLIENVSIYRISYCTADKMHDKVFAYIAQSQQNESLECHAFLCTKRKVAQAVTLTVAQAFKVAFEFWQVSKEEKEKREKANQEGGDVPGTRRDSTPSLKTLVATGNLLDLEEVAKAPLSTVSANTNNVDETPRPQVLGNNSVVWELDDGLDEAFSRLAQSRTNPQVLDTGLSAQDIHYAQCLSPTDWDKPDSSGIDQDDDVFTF
UniProt Q8BY87: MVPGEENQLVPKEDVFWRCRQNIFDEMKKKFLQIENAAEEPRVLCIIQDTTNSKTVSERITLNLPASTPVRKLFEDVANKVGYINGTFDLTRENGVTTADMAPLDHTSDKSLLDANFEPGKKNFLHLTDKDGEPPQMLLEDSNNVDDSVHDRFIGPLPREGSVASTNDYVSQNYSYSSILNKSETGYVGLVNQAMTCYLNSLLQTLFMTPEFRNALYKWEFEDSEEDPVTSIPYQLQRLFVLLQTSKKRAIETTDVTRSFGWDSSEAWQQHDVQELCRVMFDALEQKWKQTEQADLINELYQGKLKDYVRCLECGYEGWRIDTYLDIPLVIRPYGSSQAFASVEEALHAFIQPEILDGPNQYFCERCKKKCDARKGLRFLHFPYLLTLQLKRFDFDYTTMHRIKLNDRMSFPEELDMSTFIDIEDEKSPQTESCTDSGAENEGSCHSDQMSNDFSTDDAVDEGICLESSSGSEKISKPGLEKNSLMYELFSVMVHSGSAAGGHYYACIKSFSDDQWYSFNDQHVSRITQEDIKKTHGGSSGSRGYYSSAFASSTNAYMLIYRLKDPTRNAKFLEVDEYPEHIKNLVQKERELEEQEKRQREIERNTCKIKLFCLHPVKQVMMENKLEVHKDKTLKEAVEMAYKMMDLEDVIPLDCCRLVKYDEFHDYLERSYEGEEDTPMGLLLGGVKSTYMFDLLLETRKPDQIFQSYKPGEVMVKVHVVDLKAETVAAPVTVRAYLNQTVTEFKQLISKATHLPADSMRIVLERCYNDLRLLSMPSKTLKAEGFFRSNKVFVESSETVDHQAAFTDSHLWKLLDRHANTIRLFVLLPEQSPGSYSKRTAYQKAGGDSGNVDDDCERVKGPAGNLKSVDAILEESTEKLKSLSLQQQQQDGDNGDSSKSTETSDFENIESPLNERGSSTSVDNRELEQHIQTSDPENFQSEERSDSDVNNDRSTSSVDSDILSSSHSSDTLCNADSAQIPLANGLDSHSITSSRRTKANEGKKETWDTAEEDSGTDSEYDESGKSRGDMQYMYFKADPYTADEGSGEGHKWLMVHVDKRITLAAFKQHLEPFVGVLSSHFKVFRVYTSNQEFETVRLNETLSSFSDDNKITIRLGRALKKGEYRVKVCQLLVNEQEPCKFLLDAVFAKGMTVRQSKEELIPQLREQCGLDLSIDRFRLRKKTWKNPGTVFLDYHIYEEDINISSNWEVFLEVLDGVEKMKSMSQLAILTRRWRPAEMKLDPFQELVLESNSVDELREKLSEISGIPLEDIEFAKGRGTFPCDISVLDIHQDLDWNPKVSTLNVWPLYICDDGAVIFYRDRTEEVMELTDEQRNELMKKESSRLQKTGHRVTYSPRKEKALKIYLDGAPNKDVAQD

compound: CN[C@@H]1C[C@H]2O[C@@](C)([C@@H]1OC)n1c3ccccc3c3c4c(c5c6ccccc6n2c5c31)C(=O)NC4 [staurosporine]; experiment: log2 fold change of tryptic peptide abundance, ligand vs vehicle (limited proteolysis) (log2 ratio); higher = more trypsin-susceptible (destabilized); conditions: ligand concentration: 20 uM; sample: mouse liver crude lysate; replicate design: treated separately

| Target | log2 fold change |
| --- | --- |
| UniProt Q8C0D4 (peptide sequence: GAVIEMASK, peptide start residue: 518) | 0.233 |
| UniProt Q8C7E7 (peptide sequence: FLQTGHEDK, peptide start residue: 321) | -0.261 |
| UniProt Q8C0M9 (peptide sequence: GAQNADCPK, peptide start residue: 173) | -0.146 |
| UniProt Q8BY35 (peptide sequence: FHAQFFLPELQR, peptide start residue: 160) | -0.111 |
| UniProt Q8C0S1 (peptide sequence: RQYNKLR, peptide start residue: 98) | 0.468 |
| UniProt Q8C3F2 (peptide sequence: QGSSDVISK, peptide start residue: 1007) | -0.379 |
| UniProt Q8BYZ7 (peptide sequence: YITENNR, peptide start residue: 60) | -0.301 |
| UniProt Q8C0L6 (peptide sequence: TFYSTTHGALLSGWR, peptide start residue: 470) | -0.293 |
| UniProt Q8BX70 (peptide sequence: EQGLFHKK, peptide start residue: 3688) | -0.331 |
| UniProt Q8C7V8 (peptide sequence: STLDPSLK, peptide start residue: 26) | -0.234 |
| UniProt Q8BVN4 (peptide sequence: VSEAEFLAR, peptide start residue: 296) | 0.287 |
| UniProt Q8BX57 (peptide sequence: KAQTCDHSAPK, peptide start residue: 570) | 0.357 |
| UniProt Q8C0L9 (peptide sequence: EFGVNGLIYDR, peptide start residue: 603) | 0.176 |
| UniProt Q8BVR6 (peptide sequence: KKQNVDGLVLDTLAVIR, peptide start residue: 96) | -0.136 |
| UniProt Q8BZI0 (peptide sequence: IYDEVPYEK, peptide start residue: 556) | -0.149 |
| UniProt Q8C176 (peptide sequence: FSDNYYR, peptide start residue: 779) | 0.0513 |

Reformatted with each value named: part of the list above
UniProt Q8BZI0 (peptide sequence: IYDEVPYEK, peptide start residue: 556)
  log2 fold change: -0.149
UniProt Q8C176 (peptide sequence: FSDNYYR, peptide start residue: 779)
  log2 fold change: 0.0513

Next part:

| Target | log2 fold change |
| --- | --- |
| UniProt Q8C3W1 (peptide sequence: APAAAADAGDVRDPARFPGLR, peptide start residue: 79) | -0.471 |
| UniProt Q8C0X8 (peptide sequence: IIAGKYPR, peptide start residue: 229) | -0.194 |
| UniProt Q8C525 (peptide sequence: SISVFINPDDVTRPHFR, peptide start residue: 406) | 0.0833 |
| UniProt Q8C1B7 (peptide sequence: RNEFLGELQK, peptide start residue: 327) | 0.127 |
| UniProt Q8BWP5 (peptide sequence: VFTAYDVFR, peptide start residue: 126) | -0.456 |
| UniProt Q8C190 (peptide sequence: TSLTLSLQR, peptide start residue: 179) | 0.402 |
| UniProt Q8C0J2 (peptide sequence: QTFSAPGFK, peptide start residue: 524) | 0.339 |
| UniProt Q8C142 (peptide sequence: GEELSAAAVKR, peptide start residue: 62) | -0.244 |
| UniProt Q8BZW2 (peptide sequence: FKGFVNSVAAVR, peptide start residue: 51) | 0.441 |
| UniProt Q8BY87 (peptide sequence: AETVAAPVTVR, peptide start residue: 725) | -0.609 |
| UniProt Q8C3B8 (peptide sequence: GSQEVLGQAAR, peptide start residue: 2) | 0.525 |
| UniProt Q8BZK4 (peptide sequence: EKKSEEHVEDLTDVSVHLR, peptide start residue: 453) | 0.323 |
| UniProt Q8BZ98 (peptide sequence: LTISAPLPRPTSGR, peptide start residue: 774) | 0.0724 |
| UniProt Q8C6G8 (peptide sequence: LSQSDEDVIR, peptide start residue: 100) | 0.137 |
| UniProt Q8BZ47 (peptide sequence: KDEEPESVEGK, peptide start residue: 927) | -0.521 |
